Here are results for two molecules from patent US20250312452A1 (BRISTAR IMMUNOTECH, published 2025).

Sequences of proteins named here, by UniProt entry; tags and fusion partners are left off. A change or cut given only in a name is not applied to a line headed by its entry. A line that says so, or that is headed by a name, gives the form on record, which may keep a tag or linker.
MSLN (Q13421, form named): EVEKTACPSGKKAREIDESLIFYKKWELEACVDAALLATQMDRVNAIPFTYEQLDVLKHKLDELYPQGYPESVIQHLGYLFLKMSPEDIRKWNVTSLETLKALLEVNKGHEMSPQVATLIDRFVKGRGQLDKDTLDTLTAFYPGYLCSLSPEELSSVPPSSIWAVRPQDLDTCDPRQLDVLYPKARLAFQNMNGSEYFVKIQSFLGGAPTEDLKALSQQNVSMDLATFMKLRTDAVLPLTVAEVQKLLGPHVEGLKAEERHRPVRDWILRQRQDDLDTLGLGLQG

These are yes or no findings as the source states them, for the method shown. Some binding calls cover weakened binding; strength is not graded here. For some assays here: Sequences can lack the tags named with a protein.

The target of test [1] is T1, Human Claudin18.2 His tag protein (human, UniProt P56856-2 1-261, limits assumed).
T1 construct: also called Claudin18.2 protein; not shown: His tag
T1 sequence (looked up): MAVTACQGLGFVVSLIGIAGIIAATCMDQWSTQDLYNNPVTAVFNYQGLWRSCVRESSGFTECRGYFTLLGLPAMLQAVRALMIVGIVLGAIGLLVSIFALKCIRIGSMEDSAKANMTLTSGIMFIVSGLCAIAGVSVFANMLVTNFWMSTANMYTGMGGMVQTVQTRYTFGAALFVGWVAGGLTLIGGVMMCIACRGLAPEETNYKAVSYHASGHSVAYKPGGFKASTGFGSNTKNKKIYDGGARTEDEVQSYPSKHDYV
Put plainly: BLI (Octet), antibody on Protein A biosensor. The method, then: The affinity of Claudin18.2 nanobodies was determined. The affinity of the antibodies was measured using the Fortebio Octet® detection instrument based on the biolayer interferometry (BLI) technique.
After the 5 antibodies were immobilized on the Protein A biosensor, the antibodies could bind to the Human Claudin18.2 His tag protein. The measured affinity was calculated using Data Analysis 11 software of the Octet RED96e (ForteBio). The affinities (KD values) of antibody NCLD04 and antibody NCLD31 for the Claudin18.2 protein are both favorable.

For the next test, the target named is T2, MSLN (UniProt Q13421 296-580, limits assumed).
T2 construct: also called mesothelin
Briefly: membrane protein array chip.

B1: NCLD14 (VHH-IgG1 Fc) (Fc fusion)
chain: DVQLQESGGGLVQPGGSLRLSCATSGFTFSTYNMGWFRQAPGKEREFVGSIKWSASTTYYADSVKGRFTISRDNAKNTVYLQMNSLKPEDTAIYYCAGSPHIALGTRTEMYPYWGQGTQVTVSS
notes: Tested as VHH-IgG1 Fc; also called antibody NCLD14; not shown: IgG1 Fc fused to the VHH
Turning to B1, in test [1], the binding entry is “binds”.

B2: NM5 (VHH)
VHH: DVQLQESGGGLVQAGGSLRLSCVGAGVSFSPYGIGWWRQAQGNQREWVASIYRSGSTNYEDFAKDRFTISRDNTKNTAYLQMNSLKPEDTAVYYCQILGTSYRGQGTQVTVSS
notes: also called nanobody NM5; NM5 antibody
B2: in the test with MSLN, the binding result is reported as “binds”.
